Results from paper PMC6010280.
These are yes or no findings as the source states them, for the method shown. In cells and extracts the contact can be indirect. A yes stands for co-enrichment or nearness to the bait. Other partners may have been found.

T1: intein-BHMT (betaine homocysteine S-methyltransferase) (R. norvegicus) (UniProt O09171)
T1 sequence: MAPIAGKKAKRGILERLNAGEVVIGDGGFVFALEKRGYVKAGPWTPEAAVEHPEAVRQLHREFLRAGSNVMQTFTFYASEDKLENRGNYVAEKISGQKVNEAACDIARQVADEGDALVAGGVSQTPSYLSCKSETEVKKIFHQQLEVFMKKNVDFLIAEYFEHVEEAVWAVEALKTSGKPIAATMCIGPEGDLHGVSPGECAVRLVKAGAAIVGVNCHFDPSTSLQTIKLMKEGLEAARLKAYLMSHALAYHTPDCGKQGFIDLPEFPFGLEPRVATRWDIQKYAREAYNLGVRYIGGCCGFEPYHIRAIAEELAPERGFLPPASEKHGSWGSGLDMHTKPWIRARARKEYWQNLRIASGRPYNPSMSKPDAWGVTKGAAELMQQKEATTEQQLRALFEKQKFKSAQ


Each binder was assayed against T1, intein-BHMT (betaine homocysteine S-methyltransferase) (R. norvegicus) (assay: affinity purification with mass spectrometry; intein-BHMT held on chitin beads; rat liver cytosol first passed over a bead-only and an intein column; 10 mM sodium phosphate pH 7.4, 5 mM EDTA, 0.1 mM EGTA, 4°C; bound proteins eluted with a 0-500 mM NaCl gradient (peak at 50-100 mM NaCl); LC-MS/MS; only the target purified).

binding	Binder
binds	Proliferation-associated protein 2G4 (protein, UniProt Q6AYD3 1-394) MSGEDEQQEQTIAEDLVVTKYKMGGDIANRVLRSLVEASSSGVSVLSLCEKGDAMIMEETGKIFKKEKEMKKGIAFPTSISVNNCVCHFSPLKSDQDYILKEGDLVKIDLGVHVDGFIANVAHTFVIGVAQGSQVTGRKADVIKAAHLCAEAALRLVKPGNQNTQVTEAWNKVAHSFNCTPIEGMLSHQLKQHVIDGEKTIIQNPTDQQKKDHEKAEFEVHEVYAVDVLVSSGEGKAKDAGQRTTIYKRDPSKQYGLKMKTSRAFFSEVERRFDAMPFTLRAFEDEKKARMGVVECAKHELLQPFNVLYEKEGEFVAQFKFTVLLMPNGPMRITSGPFEPDLYKSEMEVQDAELKALLQSSASRKTQKKKKKKASKTAENATSGETLEENGAGD
binds	Eukaryotic translation elongation factor 1 beta 2 (protein, UniProt A6IPG1 1-225) MGFGDLKTPAGLQVLNDYLADKSYIEGYVPSQADVAVFEAISGPPPADLCHALRWYNHIKSYEKEKASLPGVKKSLGKYGPVSVADTTGSGAADAKDDDDIDLFGSDDEEESEDAKRLREERLAQYESKKAKKPAVVAKSSILLDVKPWDDETDMTKLEECVRSIQADGLVWGSSKLVPVGYGIKKLQIQCVVEDDKVGTDMLEEQITAFEDYVQSMDVAAFNKI
binds	DECR2 Peroxisomal 2,4-dienoyl-CoA reductase (protein, UniProt Q9Z2M4 1-292) MTQQPPDVEEDDCLSEYHHLFCPDLLQDKVAFITGGGSGIGFRIAEIFMRHGCHTVIVSRSLPRVSEAAKKLVAATGKRCLPLSMDVRVPPAVMAAVDQALKEFGKIDILINCAAGNFLCPASALSFNAFKTVVDIDTLGTFNVSRVLYEKFFRDHGGVIVNITATLSMRGQVLQLHAGAAKAAVDAMTRHLAVEWGPQNIRVNSLAPGAISGTEGLRRLGGPKASSKFKYLSSPIPRLGTKTEIAHSVLYLASPLASYVSGIVLVVDGGSWMTLPNDIGRLLEFESSSAKL
binds	Cytochrome P450 2B3 (entry Q6LCX1) (protein, UniProt P13107 1-491) MDTSVLLLLAVLLSFLLFLVRGHAKVHGHLPPGPRPLPLLGNLLQMDRGGFRKSFIQLQEKHGDVFTVYFGPRPVVMLCGTQTIREALVDHAEAFSGRGIIAVLQPIMQEYGVSFVNEERWKILRRLFVATMRDFGIGKQSVEDQIKEEAKCLVEELKNHQGVSLDPTFLFQCVTGNIICSIVFGERFDYRDRQFLRLLDLLYRTFSLISSFSSQMFEVYSDFLKYFPGVHREIYKNLKEVLDYIDHSVENHRATLDPNAPRDFIDTFLLHMEKEKLNHYTEFHHWNLMISVLFLFLAGTESTSNTLCYGFLLMLKYPHVAEKVQKEIDQVIGSQRVPTLDDRSKMPYTEAVIHEIQRFSDVSPMGLPCRITKDTLFRGYLLPKNTEVYFILSSALHDPQYFEQPDTFNPEHFLDANGALKKCEAFMPFSIGKRMCLGEGIARSELFLFFTTILQNYSVSSPVDPNTIDMTPKESGLAKVAPVYKICFVAR
binds	LOC499754 protein (protein, UniProt B1H281 1-534) MKIHSEAAVEAQIQELRTITRLQEQCRGLQIQGVKEKTAQNKATMGLLRSNLRRGAHEWALAKKHDQWTTSKACGKDTSMRLAHCRSTMEVAREKLRKYVFDRVNTHNVLIHLVRRRGQKLEGLELELTSLRNQPEATKEELRQLQIIRQLENNIEKTMIKITTSQNIHALYKQLLDYLKKVLAEYPTELDKLQNLVANYHSELSDMTVMSQDAMMITDEVKRNMRQGEATFIEERRARENRLNQQKKLIDKIHTKETSEKYRRGRRDLDFPSNLMSMESMKVKKRESSVADIQYQTKVTTLVEKVKSAVQCSHLWDIAGRFLAQKTTEENLELQMEDCEERRTQLEALMKKLELEEAVLKFHQTPSSVGFSSLQKKMKNMLEEEEARLRQVQNNMNKSQQLLLVIQTGIDNLYIRLIGIAPQAFQKEIAVSDTLDVYGKLDYCEGKLMYLAERTQALSRNEEVDTKVRDSLESSTLKEKHNTRITFEDQEEDMIETFQFADVDHSYVPSRAEIKKQGQRLIEGKLKGAKKKKK
